This note sets out measurements from PMC7057099.

Chains of the proteins cited; added tags and fusions are not shown. Lines headed by an entry give the natural chain unless they say otherwise; changes in a name come on top.
UniProt P43694: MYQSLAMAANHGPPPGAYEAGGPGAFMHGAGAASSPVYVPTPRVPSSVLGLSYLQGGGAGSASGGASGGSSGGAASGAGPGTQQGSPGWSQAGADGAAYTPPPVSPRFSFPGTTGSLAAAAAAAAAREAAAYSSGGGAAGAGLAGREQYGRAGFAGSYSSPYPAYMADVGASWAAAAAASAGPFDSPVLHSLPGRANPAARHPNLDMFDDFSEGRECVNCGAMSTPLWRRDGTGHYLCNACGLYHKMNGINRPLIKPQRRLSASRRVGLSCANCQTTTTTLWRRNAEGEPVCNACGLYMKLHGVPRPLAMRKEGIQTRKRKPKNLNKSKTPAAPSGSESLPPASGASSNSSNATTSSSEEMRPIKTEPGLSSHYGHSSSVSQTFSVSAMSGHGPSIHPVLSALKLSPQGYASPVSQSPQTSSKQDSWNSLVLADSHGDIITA

No constants are given. Whether binding was seen depends on the method and setting. In cells and extracts the contact can be indirect. Some results given as binding are weak or reduced against the parent protein; the word gives no strength. Tags and fused reporters may be left off the sequences shown.

B1: ZFPM2 (FOG2) p.M703L variant, Myc-DDK-tagged (protein, UniProt Q8WW38-1 1-1151)
chain: MSRRKQSKPRQIKRPLEDAIEDEEEECPSEETDIISKGDFPLEESFSTEFGPENLSCEEVEYFCNKGDDEGIQETAESDGDTQSEKPGQPGVETDDWDGPGELEVFQKDGERKIQSRQQLPVGTTWGPFPGKMDLNNNSLKTKAQVPMVLTAGPKWLLDVTWQGVEDNKNNCIVYSKGGQLWCTTTKAISEGEELIAFVVDFDSRLQAASQMTLTEGMYPARLLDSIQLLPQQAAMASILPTAIVNKDIFPCKSCGIWYRSERNLQAHLMYYCSGRQREAAPVSEENEDSAHQISSLCPFPQCTKSFSNARALEMHLNSHSGVKMEEFLPPGASLKCTVCSYTADSVINFHQHLFSHLTQAAFRCNHCHFGFQTQRELLQHQELHVPSGKLPRESDMEHSPSATEDSLQPATDLLTRSELPQSQKAMQTKDASSDTELDKCEKKTQLFLTNQRPEIQPTTNKQSFSYTKIKSEPSSPRLASSPVQPNIGPSFPVGPFLSQFSFPQDITMVPQASEILAKMSELVHRRLRHGSSSYPPVIYSPLMPKGATCFECNITFNNLDNYLVHKKHYCSSRWQQMAKSPEFPSVSEKMPEALSPNTGQTSINLLNPAAHSADPENPLLQTSCINSSTVLDLIGPNGKGHDKDFSTQTKKLSTSSNNDDKINGKPVDVKNPSVPLVDGESDPNKTTCEACNITFSRHETYLVHKQYYCATRHDPPLKRSASNKVPAMQRTMRTRKRRKMYEMCLPEQEQRPPLVQQRFLDVANLNNPCTSTQEPTEGLGECYHPRCDIFPGIVSKHLETSLTINKCVPVSKCDTTHSSVSCLEMDVPIDLSKKCLSQSERTTTSPKRLLDYHECTVCKISFNKVENYLAHKQNFCPVTAHQRNDLGQLDGKVFPNPESERNSPDVSYERSIIKCEKNGNLKQPSPNGNLFSSHLATLQGLKVFSEAAQLIATKEENRHLFLPQCLYPGAIKKAKGADQLSPYYGIKPSDYISGSLVIHNTDIEQSRNAENESPKGQASSNGCAALKKDSLPLLPKNRGMVIVNGGLKQDERPAANPQQENISQNPQHEDDHKSPSWISENPLAANENVSPGIPSAEEQLSSIAKGVNGSSQAPTSGKYCRLCDIQFNNLSNFITHKKFYCSSHAAEHVK
B2: Friend of GATA 2 protein (FOG2, ZFPM2), wild-type, Myc-DDK-tagged (protein, UniProt Q8WW38-1 1-1151)
chain: MSRRKQSKPRQIKRPLEDAIEDEEEECPSEETDIISKGDFPLEESFSTEFGPENLSCEEVEYFCNKGDDEGIQETAESDGDTQSEKPGQPGVETDDWDGPGELEVFQKDGERKIQSRQQLPVGTTWGPFPGKMDLNNNSLKTKAQVPMVLTAGPKWLLDVTWQGVEDNKNNCIVYSKGGQLWCTTTKAISEGEELIAFVVDFDSRLQAASQMTLTEGMYPARLLDSIQLLPQQAAMASILPTAIVNKDIFPCKSCGIWYRSERNLQAHLMYYCSGRQREAAPVSEENEDSAHQISSLCPFPQCTKSFSNARALEMHLNSHSGVKMEEFLPPGASLKCTVCSYTADSVINFHQHLFSHLTQAAFRCNHCHFGFQTQRELLQHQELHVPSGKLPRESDMEHSPSATEDSLQPATDLLTRSELPQSQKAMQTKDASSDTELDKCEKKTQLFLTNQRPEIQPTTNKQSFSYTKIKSEPSSPRLASSPVQPNIGPSFPVGPFLSQFSFPQDITMVPQASEILAKMSELVHRRLRHGSSSYPPVIYSPLMPKGATCFECNITFNNLDNYLVHKKHYCSSRWQQMAKSPEFPSVSEKMPEALSPNTGQTSINLLNPAAHSADPENPLLQTSCINSSTVLDLIGPNGKGHDKDFSTQTKKLSTSSNNDDKINGKPVDVKNPSVPLVDGESDPNKTTCEACNITFSRHETYMVHKQYYCATRHDPPLKRSASNKVPAMQRTMRTRKRRKMYEMCLPEQEQRPPLVQQRFLDVANLNNPCTSTQEPTEGLGECYHPRCDIFPGIVSKHLETSLTINKCVPVSKCDTTHSSVSCLEMDVPIDLSKKCLSQSERTTTSPKRLLDYHECTVCKISFNKVENYLAHKQNFCPVTAHQRNDLGQLDGKVFPNPESERNSPDVSYERSIIKCEKNGNLKQPSPNGNLFSSHLATLQGLKVFSEAAQLIATKEENRHLFLPQCLYPGAIKKAKGADQLSPYYGIKPSDYISGSLVIHNTDIEQSRNAENESPKGQASSNGCAALKKDSLPLLPKNRGMVIVNGGLKQDERPAANPQQENISQNPQHEDDHKSPSWISENPLAANENVSPGIPSAEEQLSSIAKGVNGSSQAPTSGKYCRLCDIQFNNLSNFITHKKFYCSSHAAEHVK
B3: ZFPM2 (FOG2) p.E30G variant, Myc-DDK-tagged (protein, UniProt Q8WW38-1 1-1151)
chain: MSRRKQSKPRQIKRPLEDAIEDEEEECPSGETDIISKGDFPLEESFSTEFGPENLSCEEVEYFCNKGDDEGIQETAESDGDTQSEKPGQPGVETDDWDGPGELEVFQKDGERKIQSRQQLPVGTTWGPFPGKMDLNNNSLKTKAQVPMVLTAGPKWLLDVTWQGVEDNKNNCIVYSKGGQLWCTTTKAISEGEELIAFVVDFDSRLQAASQMTLTEGMYPARLLDSIQLLPQQAAMASILPTAIVNKDIFPCKSCGIWYRSERNLQAHLMYYCSGRQREAAPVSEENEDSAHQISSLCPFPQCTKSFSNARALEMHLNSHSGVKMEEFLPPGASLKCTVCSYTADSVINFHQHLFSHLTQAAFRCNHCHFGFQTQRELLQHQELHVPSGKLPRESDMEHSPSATEDSLQPATDLLTRSELPQSQKAMQTKDASSDTELDKCEKKTQLFLTNQRPEIQPTTNKQSFSYTKIKSEPSSPRLASSPVQPNIGPSFPVGPFLSQFSFPQDITMVPQASEILAKMSELVHRRLRHGSSSYPPVIYSPLMPKGATCFECNITFNNLDNYLVHKKHYCSSRWQQMAKSPEFPSVSEKMPEALSPNTGQTSINLLNPAAHSADPENPLLQTSCINSSTVLDLIGPNGKGHDKDFSTQTKKLSTSSNNDDKINGKPVDVKNPSVPLVDGESDPNKTTCEACNITFSRHETYMVHKQYYCATRHDPPLKRSASNKVPAMQRTMRTRKRRKMYEMCLPEQEQRPPLVQQRFLDVANLNNPCTSTQEPTEGLGECYHPRCDIFPGIVSKHLETSLTINKCVPVSKCDTTHSSVSCLEMDVPIDLSKKCLSQSERTTTSPKRLLDYHECTVCKISFNKVENYLAHKQNFCPVTAHQRNDLGQLDGKVFPNPESERNSPDVSYERSIIKCEKNGNLKQPSPNGNLFSSHLATLQGLKVFSEAAQLIATKEENRHLFLPQCLYPGAIKKAKGADQLSPYYGIKPSDYISGSLVIHNTDIEQSRNAENESPKGQASSNGCAALKKDSLPLLPKNRGMVIVNGGLKQDERPAANPQQENISQNPQHEDDHKSPSWISENPLAANENVSPGIPSAEEQLSSIAKGVNGSSQAPTSGKYCRLCDIQFNNLSNFITHKKFYCSSHAAEHVK

For the first assay, the target named is GATA-binding protein 4 (GATA4), wild-type, HA-tagged (human) (UniProt P43694). Put plainly: co-IP; HEK293-T cells co-transfected with wild-type GATA4-HA and ZFPM2-Myc-DDK (wild-type or variant); Pierce IP lysis buffer; IP with rabbit anti-HA overnight at 4°C, protein A/G plus agarose, PBS washes; Western blot of the IP with anti-ZFPM2.
Regarding B1, the binding entry was “binds”.

In the case of B2, the binding entry is on record as “binds”.

On to B3, for which the binding result is given as “binds”.

Another assay deals with T1, Friend of GATA 2 protein (FOG2, ZFPM2), wild-type, Myc-DDK-tagged (human) (UniProt Q8WW38).
T1 sequence: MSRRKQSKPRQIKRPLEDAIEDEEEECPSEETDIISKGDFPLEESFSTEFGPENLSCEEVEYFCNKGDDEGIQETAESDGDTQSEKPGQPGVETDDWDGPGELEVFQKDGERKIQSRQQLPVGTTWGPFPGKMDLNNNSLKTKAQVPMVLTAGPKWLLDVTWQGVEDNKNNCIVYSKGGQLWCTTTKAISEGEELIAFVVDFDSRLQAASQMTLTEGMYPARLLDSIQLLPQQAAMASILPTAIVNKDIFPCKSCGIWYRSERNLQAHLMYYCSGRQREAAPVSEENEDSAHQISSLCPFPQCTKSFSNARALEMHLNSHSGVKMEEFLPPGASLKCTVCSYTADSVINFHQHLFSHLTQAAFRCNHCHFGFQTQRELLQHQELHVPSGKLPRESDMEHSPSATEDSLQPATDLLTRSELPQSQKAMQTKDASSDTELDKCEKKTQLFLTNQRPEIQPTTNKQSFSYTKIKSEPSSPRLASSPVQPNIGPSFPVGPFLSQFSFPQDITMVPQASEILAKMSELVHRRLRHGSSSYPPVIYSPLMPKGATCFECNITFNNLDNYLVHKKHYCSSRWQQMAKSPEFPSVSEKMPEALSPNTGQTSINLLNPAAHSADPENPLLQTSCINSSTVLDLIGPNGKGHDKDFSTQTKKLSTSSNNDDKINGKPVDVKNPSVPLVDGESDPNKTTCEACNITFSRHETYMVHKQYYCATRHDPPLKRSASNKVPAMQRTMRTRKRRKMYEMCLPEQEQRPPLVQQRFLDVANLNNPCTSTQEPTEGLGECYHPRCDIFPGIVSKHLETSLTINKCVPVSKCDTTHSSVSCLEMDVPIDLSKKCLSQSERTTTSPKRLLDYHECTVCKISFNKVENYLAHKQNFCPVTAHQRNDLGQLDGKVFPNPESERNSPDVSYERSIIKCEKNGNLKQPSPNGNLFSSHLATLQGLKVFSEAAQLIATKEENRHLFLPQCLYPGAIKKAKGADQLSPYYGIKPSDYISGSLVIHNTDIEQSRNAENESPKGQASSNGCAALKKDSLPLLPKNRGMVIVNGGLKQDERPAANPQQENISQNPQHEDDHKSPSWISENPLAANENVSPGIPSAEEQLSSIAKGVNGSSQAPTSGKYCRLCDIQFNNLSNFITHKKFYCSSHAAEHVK
Put plainly: co-IP; HEK293-T cells co-transfected with GATA4-HA (wild-type or variant) and ZFPM2-Myc-DDK; Pierce IP lysis buffer; IP with rabbit anti-FLAG overnight at 4°C, protein A/G plus agarose, PBS washes; Western blot of the IP with anti-GATA4.
Take “GATA4 p.A346V variant, HA-tagged (from UniProt P43694-1 1-442)”: the binding result was “binds”. Take “GATA-binding protein 4 (GATA4), wild-type, HA-tagged (from UniProt P43694-1 1-442)”: the binding entry is “binds”. “GATA4 p.P407Q variant, HA-tagged (from UniProt P43694-1 1-442)”: the binding entry is “binds”.

Turning to “GATA4 p.G221R variant, HA-tagged (from UniProt P43694-1 1-442)”, the binding result is recorded as “binds weakly”.
